The list does not hold the whole screen: it gathers tests that were run many times, whatever their T/C, doses with no T/C, and many T/C values between a quarter and a half above the control. Further doses and runs are listed elsewhere. T/C is the treated group as % of the vehicle group. Some entries give survivors of the animals treated and no T/C: the source files T/C as zero there, which appears to mark a toxic dose or a test without result, not a measured value. Some doses without a T/C left all or most animals alive at the check, yet need not have been tolerated: the source hardly ever lists a survival T/C far under the control, and the zero likely stands for such cases as well. Counts of survivors are from the toxicity check (mostly the fifth day) where no day follows; animals may have died later. Schedules are NCI's codes, taken here to give the interval after Q, in days (D) or hours (H), and the number of doses after X. Some entries hold several experiments; the results are listed from low to high. Some schedules carry Z or #; the key to these is not given. For survival time, this PubChem deposit counts one and a half times the control or more as active, and values a quarter to a half above the control carry no call in these data; other NCI protocols may use other cut-offs. Brackets with × stand for listed records that agree. Some T/C values are followed by the survivors on the day toxicity was checked, most often the fifth; where none is given, no animal had died by that day.
Test system: L1210 leukemia ip in BDF1 mice, survival T/C
Experiment: NCI In Vivo Anticancer Drug Screen. Data for tumor model L1210 Leukemia (intraperitoneal) in B6D2F1 (BDF1) mice
Conditions: T/C endpoint: mean survival time, higher T/C = longer survival
[1] = dose: 120.0 mg/kg/injection, schedule: Q01DX Z (ip), vehicle: saline
[2] = dose: 180.0 mg/kg/injection, schedule: Q01DX Z (ip), vehicle: saline
[3] = dose: 212.0 mg/kg/injection, schedule: Q01DX Z (oral), vehicle: saline
[4] = dose: 240.0 mg/kg/injection, schedule: Q01DX Z (ip), vehicle: saline
[5] = dose: 250.0 mg/kg/injection, schedule: Q01DX001 (ip), vehicle: saline
[6] = dose: 270.0 mg/kg/injection, schedule: Q01DX Z (ip), vehicle: carboxymethylcellulose (CMC)
[7] = dose: 270.0 mg/kg/injection, schedule: Q01DX Z (ip), vehicle: saline

## CN(C)c1ccc(Nc2c3ccccc3nc3ccccc23)cc1
dose: 120.0 mg/kg/injection, schedule: Q01DX Z (ip), vehicle: carboxymethylcellulose (CMC)
  T/C: 147 % of control
dose: 120.0 mg/kg/injection, schedule: Q01DX Z (ip), vehicle: methylcellulose (MC)
  survivor count: 4 of 6 and 5 of 6
dose: 120.0 mg/kg/injection, schedule: Q01DX Z (ip), vehicle: olive oil, sesame oil, peanut oil
  survivor count: 1 of 6
[1]
  T/C: 90, 105 (2×), 109, 154, 160, 174, 180 % of control
  survivor count: 6 of 6
dose: 120.0 mg/kg/injection, schedule: Q01DX Z (oral), vehicle: saline
  T/C: 142 % of control
dose: 120.0 mg/kg/injection, schedule: Q01DX Z (sc), vehicle: olive oil, sesame oil, peanut oil
  T/C: 132 % of control
dose: 125.0 mg/kg/injection, schedule: Q01DX001 (ip), vehicle: saline
  T/C: 125 % of control
dose: 140.0 mg/kg/injection, schedule: Q01DX Z (oral), vehicle: saline
  T/C: 128 % of control (2×)
dose: 150.0 mg/kg/injection, schedule: Q03DX006 (oral), vehicle: saline
  T/C: 133 % of control
dose: 159.0 mg/kg/injection, schedule: Q01DX Z (ip), vehicle: saline
  T/C: 125 % of control
dose: 160.0 mg/kg/injection, schedule: Q01DX005 (ip), vehicle: saline
  survivor count: 0 of 10
dose: 160.0 mg/kg/injection, schedule: Q01DX009 (ip), vehicle: saline
  survivor count: 0 of 10
dose: 180.0 mg/kg/injection, schedule: Q01DX007 (iv), vehicle: saline
  survivor count: 0 of 6
dose: 180.0 mg/kg/injection, schedule: Q01DX009 (ip), vehicle: saline
  survivor count: 0 of 6 and 1 of 6
dose: 180.0 mg/kg/injection, schedule: Q01DX Z (ip), vehicle: methylcellulose (MC)
  survivor count: 2 of 6 and 6 of 6
[2]
  T/C: 87, 106, 109, 121, 141, 170 % of control
  survivor count: 3 of 6 and 6 of 6
dose: 200.0 mg/kg/injection, schedule: Q01DX001 (ip), vehicle: saline
  survivor count: 0 of 10
dose: 200.0 mg/kg/injection, schedule: Q01DX005 (ip), vehicle: other
  survivor count: 0 of 6
dose: 200.0 mg/kg/injection, schedule: Q01DX009 (ip), vehicle: saline
  survivor count: 3 of 6 and 6 of 6
dose: 200.0 mg/kg/injection, schedule: Q01DX Z (im), vehicle: saline
  T/C: 143 % of control
dose: 200.0 mg/kg/injection, schedule: Q04DX003 (ip), vehicle: Klucel (hydroxypropylcellulose) (HPC)
  T/C: 145 % of control
dose: 200.0 mg/kg/injection, schedule: Q04DX003 (ip), vehicle: other
  survivor count: 3 of 6
dose: 200.0 mg/kg/injection, schedule: Q04DX003 (ip), vehicle: saline
  survivor count: 0 of 10 and 3 of 6
dose: 200.0 mg/kg/injection, schedule: Q#A X Z (oral), vehicle: saline
  survivor count: 6 of 6
[3]
  T/C: 128 % of control
  survivor count: 5 of 6
dose: 240.0 mg/kg/injection, schedule: Q01DX Z (ip), vehicle: olive oil, sesame oil, peanut oil
  survivor count: 0 of 6
[4]
  T/C: 146 % of control
  survivor count: 4 of 6
dose: 240.0 mg/kg/injection, schedule: Q01DX Z (oral), vehicle: olive oil, sesame oil, peanut oil
  survivor count: 3 of 6
dose: 240.0 mg/kg/injection, schedule: Q01DX Z (sc), vehicle: olive oil, sesame oil, peanut oil
  T/C: 146 % of control
dose: 240.0 mg/kg/injection, schedule: Q01DX Z (sc), vehicle: saline
  T/C: 136 % of control
dose: 250.0 mg/kg/injection, schedule: Q01DX001 (ip), vehicle: other
  T/C: 132 % of control
[5]
  T/C: 135 % of control
  survivor count: 2 of 6
[6]
  T/C: 90 and 100 % of control
  survivor count: 6 of 6 and 7 of 7
dose: 270.0 mg/kg/injection, schedule: Q01DX Z (ip), vehicle: methylcellulose (MC)
  survivor count: 1 of 6 and 6 of 6
[7]
  T/C: 103 and 124 % of control
  survivor count: 0 of 6 and 6 of 6
dose: 300.0 mg/kg/injection, schedule: Q03DX006 (oral), vehicle: saline
  T/C: 131 % of control
dose: 320.0 mg/kg/injection, schedule: Q01DX Z (oral), vehicle: saline
  survivor count: 5 of 6
dose: 350.0 mg/kg/injection, schedule: Q01DX001 (oral), vehicle: saline
  T/C: 130 % of control
dose: 360.0 mg/kg/injection, schedule: Q01DX Z (ip), vehicle: saline
  T/C: 144 % of control
dose: 371.0 mg/kg/injection, schedule: Q01DX Z (ip), vehicle: saline
  T/C: 130 % of control
dose: 400.0 mg/kg/injection, schedule: Q01DX001 (ip), vehicle: saline
  survivor count: 0 of 10
dose: 400.0 mg/kg/injection, schedule: Q01DX Z (ip), vehicle: carboxymethylcellulose (CMC)
  survivor count: 6 of 6 and 7 of 7
dose: 400.0 mg/kg/injection, schedule: Q04DX003 (ip), vehicle: other
  survivor count: 2 of 6 and 4 of 6
dose: 400.0 mg/kg/injection, schedule: Q04DX003 (ip), vehicle: saline
  survivor count: 0 of 10, 0 of 6, 3 of 6
dose: 400.0 mg/kg/injection, schedule: Q06HX012 (ip), vehicle: saline
  survivor count: 0 of 10
dose: 400.0 mg/kg/injection, schedule: Q#A X Z (oral), vehicle: saline
  survivor count: 4 of 6
dose: 480.0 mg/kg/injection, schedule: Q01DX Z (ip), vehicle: olive oil, sesame oil, peanut oil
  survivor count: 0 of 6
dose: 480.0 mg/kg/injection, schedule: Q01DX Z (ip), vehicle: saline
  survivor count: 0 of 6
dose: 480.0 mg/kg/injection, schedule: Q01DX Z (oral), vehicle: olive oil, sesame oil, peanut oil
  survivor count: 1 of 6
dose: 480.0 mg/kg/injection, schedule: Q01DX Z (oral), vehicle: saline
  survivor count: 1 of 6
dose: 480.0 mg/kg/injection, schedule: Q01DX Z (sc), vehicle: olive oil, sesame oil, peanut oil
  survivor count: 2 of 6
dose: 500.0 mg/kg/injection, schedule: Q01DX001 (ip), vehicle: saline
  T/C: 132 [4 of 6 alive] and 148 % of control [4 of 6 alive]
dose: 560.0 mg/kg/injection, schedule: Q01DX Z (ip), vehicle: saline
  T/C: 130 % of control
dose: 600.0 mg/kg/injection, schedule: Q01DX Z (ip), vehicle: carboxymethylcellulose (CMC)
  survivor count: 6 of 7 and 6 of 6
dose: 700.0 mg/kg/injection, schedule: Q01DX001 (oral), vehicle: saline
  T/C: 148 % of control
dose: 700.0 mg/kg/injection, schedule: Q07DX003 (oral), vehicle: saline
  T/C: 134 % of control [5 of 6 alive]
dose: 720.0 mg/kg/injection, schedule: Q01DX Z (oral), vehicle: saline
  survivor count: 1 of 6
dose: 960.0 mg/kg/injection, schedule: Q01DX Z (sc), vehicle: olive oil, sesame oil, peanut oil
  survivor count: 2 of 6
dose: 960.0 mg/kg/injection, schedule: Q01DX Z (sc), vehicle: saline
  T/C: 133 % of control
dose: 1000.0 mg/kg/injection, schedule: Q01DX001 (ip), vehicle: other
  survivor count: 0 of 6
dose: 1000.0 mg/kg/injection, schedule: Q01DX001 (ip), vehicle: saline
  survivor count: 0 of 6
dose: 1200.0 mg/kg/injection, schedule: Q03DX006 (oral), vehicle: saline
  survivor count: 3 of 6
dose: 1400.0 mg/kg/injection, schedule: Q01DX001 (oral), vehicle: saline
  survivor count: 3 of 6
dose: 1400.0 mg/kg/injection, schedule: Q07DX003 (oral), vehicle: saline
  survivor count: 2 of 6
